This is one part of the list. This data set is noisy: repeats of one test often differ as much as different tests do.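 The human kidney-derived cells carry a stably integrated construct of eight TEAD-binding elements driving luciferase, read by luminescence in a drug-repurposing library screen. A compound counts as a hit when its signal is more than five robust Z scores above the plate mean.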

The test has as its system HEK293A TEAD-LUC reporter. As to the kind of experiment: TEAD-luciferase reporter activity (YAP activation), robust Z score vs plate; higher = stronger YAP/TEAD activation. Particulars: 24 h. (In general: A reporter such as luciferase makes a cellular process visible.)

As to `COc1cccc2c1[C@]13CCN(CC4CC4)[C@H](C2)[C@]1(OC)CCC(=O)C3` [cyprodime], the TEAD-luciferase reporter activity (compound concentration: 200 nM) is inactive: -0.0122, the TEAD-luciferase reporter activity (compound concentration: 2 uM) is inactive: -0.726 and the TEAD-luciferase reporter activity (compound concentration: 10 uM) was inactive: 0.856.
Take `CCN(CC)CC#CC(C)(C)OC(=O)C(O)(c1ccccc1)C1CCCCC1` (stereo not drawn): the TEAD-luciferase reporter activity reads like this: (compound concentration: 200 nM) inactive: 0.297; (compound concentration: 2 uM) inactive: 0.567; (compound concentration: 10 uM) inactive: 0.811.
With `COc1ccc(C2(C#N)CCN(CC(=O)NO)CC2)cc1OC1CCCC1`, the TEAD-luciferase reporter activity (compound concentration: 200 nM) was inactive: -1.21, the TEAD-luciferase reporter activity (compound concentration: 2 uM) was inactive: 0.108 and the TEAD-luciferase reporter activity (compound concentration: 10 uM) is active: 6.27.
`CS(=O)CCCCN=C=S` (stereo not drawn) [Sulforaphane]: the TEAD-luciferase reporter activity (compound concentration: 200 nM) was inactive: -0.672, the TEAD-luciferase reporter activity (compound concentration: 2 uM) is active: 5.7 and the TEAD-luciferase reporter activity (compound concentration: 10 uM) is inactive: -0.203.
Turning to `Cc1ccc(CCc2c(CCN)ccc(O)c2O)cc1O`, the TEAD-luciferase reporter activity by setting is: (compound concentration: 200 nM) inactive: 1.91; (compound concentration: 2 uM) inactive: 0.0951; (compound concentration: 10 uM) inactive: -0.214.
`Cc1noc(C)c1C(=O)N1C2CCC1CN(C(C)C)C2`: the TEAD-luciferase reporter activity (compound concentration: 200 nM) is inactive: 0.499 and the TEAD-luciferase reporter activity (compound concentration: 10 uM) is inactive: -1.25.
`CCP(=O)(O)CCCN`: the TEAD-luciferase reporter activity is, setting by setting: (compound concentration: 200 nM) inactive: -1.23; (compound concentration: 2 uM) inactive: 0.0259; (compound concentration: 10 uM) inactive: -2.26.
For the compound `Oc1ccc2c(c1)[C@@]13CCCC[C@@]1(O)[C@@H](C2)N(CC1CCC1)CC3` [Butorphanol-(+)-Tartrate (Schedule Iv)], the TEAD-luciferase reporter activity was inactive: 2.74 (compound concentration: 200 nM) and inactive: -2.42 (compound concentration: 10 uM).
Regarding `NC(=O)OCC(O)c1ccccc1` (stereo not drawn), the TEAD-luciferase reporter activity was inactive: -0.49 (compound concentration: 200 nM), inactive: -0.772 (compound concentration: 2 uM) and inactive: -0.0224 (compound concentration: 10 uM).
`CC(C)CC(NC(=O)C(Cc1ccccc1)NC(=O)CNC(=O)[C@H](C)NC(=O)C(N)Cc1ccc(O)cc1)C(=O)N[C@H](CCCNC(=N)N)C(=O)O` (stereo partly drawn) [Dalargin]: the TEAD-luciferase reporter activity (compound concentration: 200 nM) is inactive: -1.03, the TEAD-luciferase reporter activity (compound concentration: 2 uM) is inactive: 0.208 and the TEAD-luciferase reporter activity (compound concentration: 10 uM) was inactive: 1.75.
Regarding `O=C(C1CCCN1C(=O)Nc1ccc(Cl)cc1)N1CCC(N2Cc3ccccc3C2=O)CC1` (stereo not drawn), the TEAD-luciferase reporter activity is active: 5.87 (compound concentration: 200 nM) and inactive: 0.487 (compound concentration: 10 uM).
On to `CCS(=O)(=O)NC1CC2(C)OC1(C)C1C(=O)N(c3ccc(C#N)c(C(F)(F)F)c3)C(=O)C12` (stereo not drawn), for which the TEAD-luciferase reporter activity (compound concentration: 200 nM) is inactive: -1.71, the TEAD-luciferase reporter activity (compound concentration: 2 uM) is inactive: 3.13 and the TEAD-luciferase reporter activity (compound concentration: 10 uM) was inactive: 3.92.
Taken in the same sequence, the figures for `CC(C)=CCC[C@]1(C)C=Cc2c(O)c3c(c(CC=C(C)C)c2O1)O[C@]12C(=C[C@@H]4C[C@H]1C(C)(C)O[C@@]2(C/C=C(/C)C(=O)O)C4=O)C3=O` [Gambogic acid] were inactive: -0.632, inactive: 0.95 and active: 9.61.
Taken in the same sequence, the figures for `CNCC(=O)c1ccc(O)c(O)c1` were inactive: -0.765, inactive: -0.487 and inactive: -0.848.
As to `N=C(NCCC[C@H](N)C(=O)O)N[N+](=O)[O-]` [NG-nitro-arginine], the TEAD-luciferase reporter activity was inactive: -0.561 (compound concentration: 200 nM) and inactive: 0.0351 (compound concentration: 10 uM).
Take `CCCCN1C(=O)C(=C/C=C/C=C2\Oc3ccccc3N2CCCS(=O)(=O)O)C(=O)N(CCCC)C1=S`: the TEAD-luciferase reporter activity was inactive: -2.87 (compound concentration: 200 nM), inactive: -1.55 (compound concentration: 2 uM) and inactive: -0.0429 (compound concentration: 10 uM).
Taken in the same sequence, the figures for `O=C1Nc2ccccc2C(C(=O)NC2CN3CCC2CC3)c2ccccc21` (stereo not drawn) were inactive: -1.41, inactive: -1.12 and inactive: 1.67.
Turning to `C=C1CC[C@@]2(O)C3Cc4ccc(O)c5c4[C@@]2(CCN3CC2CC2)[C@H]1O5` [nalmefene], the TEAD-luciferase reporter activity (compound concentration: 200 nM) is inactive: 2.17, the TEAD-luciferase reporter activity (compound concentration: 2 uM) is inactive: -1.02 and the TEAD-luciferase reporter activity (compound concentration: 10 uM) was inactive: -0.239.
For `CC1(C)CN[Se]c2ccccc21`, the TEAD-luciferase reporter activity is inactive: 0.563 (compound concentration: 200 nM), inactive: -0.795 (compound concentration: 2 uM) and inactive: -0.961 (compound concentration: 10 uM).
For `CN(C)C(=O)c1nc(CNC(=O)CN)n(-c2ccc(Cl)cc2C(=O)c2ccccc2Cl)n1`, the TEAD-luciferase reporter activity reads like this: (compound concentration: 200 nM) inactive: -0.721; (compound concentration: 2 uM) inactive: -0.366; (compound concentration: 10 uM) inactive: -0.877.
For `O=C(C1CCCN1C(=O)Cc1ccc(F)cc1)N1CCC(N2Cc3ccccc3C2=O)CC1` (stereo not drawn), the TEAD-luciferase reporter activity by setting is: (compound concentration: 200 nM) inactive: -0.994; (compound concentration: 10 uM) inactive: 4.1.
Turning to `COc1ccc2c(c[n+](C)c3c4cc5c(cc4ccc23)OCO5)c1OC` [chelerythrine], the TEAD-luciferase reporter activity by setting is: (compound concentration: 200 nM) inactive: 2.35; (compound concentration: 2 uM) inactive: 4.41; (compound concentration: 10 uM) active: 6.84.
Regarding `CN/C(=N/S(=O)(=O)c1ccc(Cl)cc1)N1CC(c2ccccc2)C(c2ccc(Cl)cc2)=N1` (stereo not drawn) [Ibipinabant], the TEAD-luciferase reporter activity reads like this: (compound concentration: 200 nM) inactive: 0.257; (compound concentration: 2 uM) inactive: -0.896; (compound concentration: 10 uM) inactive: 0.862.
On the same counts, the results for `CC[C@H]1CC2CN3CCc4c([nH]c5ccccc45)[C@](C(=O)OC)(C2)C13` [Coronaridine] are inactive: -1.62, inactive: 2.34 and inactive: 1.27.
Consider `C[N+]1(CC2CC2)CC[C@]23c4c5ccc(O)c4O[C@H]2C(=O)CC[C@@]3(O)[C@H]1C5` (stereo partly drawn) [Methylnaltrexone (Bromide)], for which the TEAD-luciferase reporter activity is inactive: -0.888 (compound concentration: 200 nM), inactive: 0.000251 (compound concentration: 2 uM) and inactive: -0.884 (compound concentration: 10 uM).
Turning to `Oc1c(Br)cc(Br)cc1Br`, the TEAD-luciferase reporter activity by setting is: (compound concentration: 200 nM) inactive: 1.66; (compound concentration: 2 uM) inactive: 0.221; (compound concentration: 10 uM) inactive: -1.08.

The record behind these values is the supplement of paper PMC10735217.
